US20190015423A1, “REGULATION OF GENE EXPRESSION BY MODULATING PRIMARY CILIA LENGTH” (THE TRUSTEES OF COLUMBIA UNIVERSITY IN THE CITY OF NEW YORK, priority 2016, published 2019)

Tested on: MLO-Y4 osteocytes
Assay: High-throughput drug screening of primary cilia length and incidence
Assay type: cell-based
Conditions: 10 μM, 16 hours, triplicate; normalized to vehicle control; standard deviation away from the population average
Description: MLO-Y4 osteocytes were maintained on collagen I-coated dishes in MEMα (Life_Technologies) supplemented with 5% fetal bovine serum (FBS), 5% calf serum (CS), and 1% penicillin/streptomycin (P/S) at 37° C. and 5% CO2. Osteocytes were then seeded onto 384-well collagen-coated plates for 72 hours before fixation. […] These libraries include Tocris, Sigma LOPAC, Selleck Chemical, Prestwick, and Spectrum commercially available compound libraries. All cell seeding and plate handling was performed with the Perkin Elmer cell:explorer workstation.
Cells were fixed in 4% paraformaldehyde and permeabilized with 0.1% Triton-X 100 (Sigma). 10% goat serum (vendor) was used for blocking. Cilia were stained using a monoclonal antibody against acetylated α-tubulin (1:20) from a C3B9 hybridoma cell line, and visualized with A F488 (1:1000, ThermoFisher). Nuclei were visualized with Hoechst. Cells were imaged using a GE INCell 2000 high-throughput imager at 40× magnification. 4 fields of view were taken per well.
Each pair of nuclei and cilia images was first analyzed individually, then the entire population was examined to evaluate each compound's effect on cilia length and incidence. […] The augmentation of the algorithm incorporates thresholding for noise removal based on signal intensity and object size, nuclei dilation to exclude non-cellular artifacts, as well as skeletonization of cilia to quantify length. […]

## O=C1NC(=O)c2c1c(-c1ccccc1)cc1[nH]c3ccc(O)cc3c21 [PD-407824]
  Average Length SD Away: 1.51 SD

## COC(=O)[C@H](CCCN=C(N)N)NS(=O)(=O)c1ccc(C)cc1 [TAME]
  Average Incidence SD Away: 2.325 SD
